Laboratory results as given in the supplement of paper PMC8728848.
Some of the results follow.

Tests used:
Assay in all cases: glycan array binding signal (z-score within array); higher = stronger binding
Details in all cases: glycan notation: IUPAC condensed, linker removed; mutation: H213R,G256S
[1] = target: Neu5Ac(a2-3)GalNAc
Outline: (§1)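 Arrays were curated from the Consortium for Functional Glycomics database, 3228 in total, and kept only where the protein sequence was available. Binding is expressed as a within-array Z-score. This score was averaged across arrays of the same protein sequence at different concentrations or buffers and across linkers, and negative values can be read as non-binding.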

[2] = target: Neu5Ac(a2-3)GalNAc(b1-4)GlcNAc
Outline: as §1

[3] = target: Neu5Ac(a2-3)[GalNAc(b1-4)]Gal(b1-4)Glc
Outline: as §1

[4] = target: Neu5Ac(a2-3)[GalNAc(b1-4)]Gal(b1-4)GlcNAc
Outline: as §1

[5] = target: Neu5Ac(a2-3)[Neu5Ac(a2-6)]GalNAc
Outline: as §1

[6] = target: Neu5Ac(a2-6)Gal
Outline: as §1

[7] = target: Neu5Ac(a2-6)Gal(b1-4)Glc
Outline: as §1

[8] = target: Neu5Ac(a2-6)Gal(b1-4)GlcNAc
Outline: as §1

[9] = target: Neu5Ac(a2-6)Gal(b1-4)GlcNAc(b1-2)Man(a1-3)[Neu5Ac(a2-6)Gal(b1-4)GlcNAc(b1-2)Man(a1-6)]Man(b1-4)GlcNAc(b1-4)GlcNAc
Outline: as §1

[10] = target: Neu5Ac(a2-6)Gal(b1-4)GlcNAc(b1-3)Gal(b1-4)GlcNAc
Outline: as §1

[11] = target: Neu5Ac(a2-6)Gal(b1-4)GlcNAc(b1-3)Gal(b1-4)[Fuc(a1-3)]GlcNAc(b1-3)Gal(b1-4)[Fuc(a1-3)]GlcNAc
Outline: as §1

[12] = target: Neu5Ac(a2-6)Gal(b1-4)GlcNAc6S
Outline: as §1

[13] = target: Neu5Ac(a2-6)GalNAc
Outline: as §1

[14] = target: Neu5Ac(a2-6)GalNAc(b1-4)GlcNAc
Outline: as §1

[15] = target: Neu5Ac(a2-8)Neu5Ac
Outline: as §1

[16] = target: Neu5Ac(a2-8)Neu5Ac(a2-3)Gal(b1-4)Glc
Outline: as §1

[17] = target: Neu5Ac(a2-8)Neu5Ac(a2-3)[GalNAc(b1-4)]Gal(b1-4)Glc
Outline: as §1

[18] = target: Neu5Ac(a2-8)Neu5Ac(a2-8)Neu5Ac
Outline: as §1

[19] = target: Neu5Ac(a2-8)Neu5Ac(a2-8)Neu5Ac(a2-3)Gal(b1-4)Glc
Outline: as §1

[20] = target: Neu5Ac(a2-8)Neu5Ac(a2-8)Neu5Ac(a2-3)[GalNAc(b1-4)]Gal(b1-4)Glc
Outline: as §1

[21] = target: Neu5Ac(a2-8)Neu5Ac(a2-8)Neu5Ac(a2-8)Neu5Ac(a2-3)[GalNAc(b1-4)]Gal(b1-4)Glc
Outline: as §1

[22] = target: Neu5Ac(b2-6)Gal(b1-4)GlcNAc
Outline: as §1

[23] = target: Neu5Ac(b2-6)GalNAc
Outline: as §1

[24] = target: Neu5Ac9Ac(a2-6)Gal(b1-4)GlcNAc
Outline: as §1

[25] = target: Neu5Gc(a2-3)Gal(b1-3)GlcNAc
Outline: as §1

[26] = target: Neu5Gc(a2-3)Gal(b1-3)[Fuc(a1-4)]GlcNAc
Outline: as §1

[27] = target: Neu5Gc(a2-3)Gal(b1-4)Glc
Outline: as §1

[28] = target: Neu5Gc(a2-3)Gal(b1-4)GlcNAc
Outline: as §1

[29] = target: Neu5Gc(a2-3)Gal(b1-4)[Fuc(a1-3)]GlcNAc
Outline: as §1

[30] = target: Neu5Gc(a2-6)Gal(b1-4)GlcNAc
Outline: as §1

[31] = target: Neu5Gc(a2-6)GalNAc
Outline: as §1

B1: CD23 (Homo sapiens) (protein)
chain: MELQVSSGFVCNTCPEKWINFQRKCYYFGKGTKQWVHARYACDDMEGQLVSIHSPEEQDFLTKRASHTGSWIGLRNLDLKGEFIWVDGSHVDYSNWAPGEPTSRSQSEDCVMMRGSGRWNDAFCDRKLGAWVCDRLATCTPPASEGSAESMGPDSRPDPDGRLPTPSAPLHS
B1 was tested, and the “glycan array binding signal (z-score)” value [1] was -0.36, the “glycan array binding signal (z-score)” value [2] was -0.32 and the “glycan array binding signal (z-score)” value [3] was -0.35. For the same binder, the “glycan array binding signal (z-score)” value [4] was 0.017, the “glycan array binding signal (z-score)” value [5] was -0.095 and the “glycan array binding signal (z-score)” value [6] was -0.278. The “glycan array binding signal (z-score)” value [7] was -0.153, the “glycan array binding signal (z-score)” value [8] was -0.056 and the “glycan array binding signal (z-score)” value [9] was 0.032. For the same binder, the “glycan array binding signal (z-score)” value [10] was -0.232, the “glycan array binding signal (z-score)” value [11] was -0.109 and the “glycan array binding signal (z-score)” value [12] was -0.002. For the same binder, the “glycan array binding signal (z-score)” value [13] was -0.238, the “glycan array binding signal (z-score)” value [14] was -0.245 and the “glycan array binding signal (z-score)” value [15] was -0.457. For the same binder, the “glycan array binding signal (z-score)” value [16] was -0.257, the “glycan array binding signal (z-score)” value [17] was -0.532 and the “glycan array binding signal (z-score)” value [18] was -0.337. The “glycan array binding signal (z-score)” value [19] was -0.498, the “glycan array binding signal (z-score)” value [20] was -0.425 and the “glycan array binding signal (z-score)” value [21] was -0.351. The “glycan array binding signal (z-score)” value [22] was -0.167, the “glycan array binding signal (z-score)” value [23] was -0.258 and the “glycan array binding signal (z-score)” value [24] was -0.441. The “glycan array binding signal (z-score)” value [25] was -0.207, the “glycan array binding signal (z-score)” value [26] was 0.043 and the “glycan array binding signal (z-score)” value [27] was 0.255. The “glycan array binding signal (z-score)” value [28] was 0.062, the “glycan array binding signal (z-score)” value [29] was -0.112 and the “glycan array binding signal (z-score)” value [30] was 0.224. The “glycan array binding signal (z-score)” value [31] was 0.397.
